# Data reported in the supplement of paper PMC8728848.
# The other results are listed elsewhere or left out.
# How the values were obtained:
# Assay in all cases: glycan array binding signal (z-score within array); higher = stronger binding
# Conditions in all cases: glycan notation: IUPAC condensed, linker removed
# [1] = molecular target: GalNAc(b1-4)GlcNAc(b1-2)Man
# Method in brief: (§1)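 Arrays were curated from the Consortium for Functional Glycomics database, 3228 in total, and kept only where the protein sequence was available. Binding is expressed as a within-array Z-score. This score was averaged across arrays of the same protein sequence at different concentrations or buffers and across linkers, and negative values can be read as non-binding.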
# [2] = molecular target: GalNAc(b1-4)GlcNAc(b1-2)Man(a1-3)[GalNAc(b1-4)GlcNAc(b1-2)Man(a1-6)]Man(b1-4)GlcNAc(b1-4)GlcNAc
# Method in brief: as §1
# [3] = molecular target: GalNAc(b1-4)GlcNAc(b1-3)GalNAc(b1-4)GlcNAc
# Method in brief: as §1
# GalNAc(b1-4)GlcNAc6S = molecular target: GalNAc(b1-4)GlcNAc6S
# Method in brief: as §1
# GalNAc(b1-6)GalNAc = molecular target: GalNAc(b1-6)GalNAc
# Method in brief: as §1
# GalNAc3S(b1-4)GlcNAc = molecular target: GalNAc3S(b1-4)GlcNAc
# Method in brief: as §1
# GalNAc3S(b1-4)GlcNAc3S = molecular target: GalNAc3S(b1-4)GlcNAc3S
# Method in brief: as §1
# [4] = molecular target: GalNAc3S(b1-4)[Fuc(a1-3)]GlcNAc
# Method in brief: as §1
# GalNAc4S6S(b1-4)GlcNAc = molecular target: GalNAc4S6S(b1-4)GlcNAc
# Method in brief: as §1
# GalNAc6S(b1-4)GlcNAc = molecular target: GalNAc6S(b1-4)GlcNAc
# Method in brief: as §1
# Glc(a1-4)Glc = molecular target: Glc(a1-4)Glc
# Method in brief: as §1
# [5] = molecular target: Glc(a1-4)Glc(a1-4)Glc(a1-4)Glc
# Method in brief: as §1
# Glc(a1-6)Glc(a1-6)Glc = molecular target: Glc(a1-6)Glc(a1-6)Glc
# Method in brief: as §1
# [6] = molecular target: Glc(a1-6)Glc(a1-6)Glc(a1-6)Glc
# Method in brief: as §1
# Glc(b1-4)Glc = molecular target: Glc(b1-4)Glc
# Method in brief: as §1
# Glc(b1-6)Glc = molecular target: Glc(b1-6)Glc
# Method in brief: as §1
# GlcA(b1-3)Gal = molecular target: GlcA(b1-3)Gal
# Method in brief: as §1
# GlcA(b1-3)GlcNAc = molecular target: GlcA(b1-3)GlcNAc
# Method in brief: as §1
# GlcA(b1-6)Gal = molecular target: GlcA(b1-6)Gal
# Method in brief: as §1
# [7] = molecular target: GlcA3S(b1-3)Gal(b1-4)GlcNAc(b1-2)Man
# Method in brief: as §1
# [8] = molecular target: GlcA3S(b1-3)Gal(b1-4)GlcNAc(b1-3)Gal(b1-4)Glc
# Method in brief: as §1
# [9] = molecular target: GlcNAc(a1-3)Gal(b1-4)GlcNAc
# Method in brief: as §1
# [10] = molecular target: GlcNAc(a1-4)Gal(b1-3)GlcNAc
# Method in brief: as §1
# [11] = molecular target: GlcNAc(a1-4)Gal(b1-4)GalNAc
# Method in brief: as §1
# [12] = molecular target: GlcNAc(a1-4)Gal(b1-4)GlcNAc
# Method in brief: as §1
# [13] = molecular target: GlcNAc(a1-4)Gal(b1-4)GlcNAc(b1-3)Gal(b1-4)Glc
# Method in brief: as §1
# [14] = molecular target: GlcNAc(a1-4)Gal(b1-4)GlcNAc(b1-3)Gal(b1-4)GlcNAc
# Method in brief: as §1
# [15] = molecular target: GlcNAc(a1-4)Gal(b1-4)GlcNAc(b1-3)Gal(b1-4)GlcNAc(b1-3)Gal(b1-4)GlcNAc
# Method in brief: as §1
# [16] = molecular target: GlcNAc(a1-4)Gal(b1-4)GlcNAc(b1-3)Gal(b1-4)[Fuc(a1-3)]GlcNAc(b1-3)Gal(b1-4)[Fuc(a1-3)]GlcNAc
# Method in brief: as §1
# [17] = molecular target: GlcNAc(a1-6)Gal(b1-4)GlcNAc
# Method in brief: as §1
# [18] = molecular target: GlcNAc(b1-2)Gal(b1-3)GalNAc
# Method in brief: as §1
# [19] = molecular target: GlcNAc(b1-2)Man(a1-3)[GlcNAc(b1-2)Man(a1-6)]Man(b1-4)GlcNAc(b1-4)GlcNAc
# Method in brief: as §1
# [20] = molecular target: GlcNAc(b1-2)Man(a1-3)[GlcNAc(b1-2)Man(a1-6)]Man(b1-4)GlcNAc(b1-4)[Fuc(a1-6)]GlcNAc
# Method in brief: as §1
# [21] = molecular target: GlcNAc(b1-2)Man(a1-3)[GlcNAc(b1-4)][GlcNAc(b1-2)Man(a1-6)]Man(b1-4)GlcNAc(b1-4)GlcNAc
# Method in brief: as §1
# [22] = molecular target: GlcNAc(b1-2)Man(a1-3)[GlcNAc(b1-4)][GlcNAc(b1-2)Man(a1-6)]Man(b1-4)GlcNAc(b1-4)[Fuc(a1-6)]GlcNAc
# Method in brief: as §1
# [23] = molecular target: GlcNAc(b1-2)[GlcNAc(b1-4)]Man(a1-3)[GlcNAc(b1-2)Man(a1-6)]Man(b1-4)GlcNAc(b1-4)GlcNAc
# Method in brief: as §1
# [24] = molecular target: GlcNAc(b1-2)[GlcNAc(b1-4)]Man(a1-3)[GlcNAc(b1-4)][GlcNAc(b1-2)Man(a1-6)]Man(b1-4)GlcNAc(b1-4)GlcNAc
# Method in brief: as §1
# [25] = molecular target: GlcNAc(b1-2)[GlcNAc(b1-4)]Man(a1-3)[GlcNAc(b1-4)][GlcNAc(b1-2)[GlcNAc(b1-6)]Man(a1-6)]Man(b1-4)GlcNAc(b1-4)GlcNAc
# Method in brief: as §1
# [26] = molecular target: GlcNAc(b1-2)[GlcNAc(b1-4)]Man(a1-3)[GlcNAc(b1-4)][GlcNAc(b1-2)[GlcNAc(b1-6)]Man(a1-6)]Man(b1-4)GlcNAc(b1-4)[Fuc(a1-6)]GlcNAc
# Method in brief: as §1
# [27] = molecular target: GlcNAc(b1-2)[GlcNAc(b1-6)]Man(a1-6)[GlcNAc(b1-2)Man(a1-3)]Man(b1-4)GlcNAc(b1-4)GlcNAc
# Method in brief: as §1
# [28] = molecular target: GlcNAc(b1-2)[GlcNAc(b1-6)]Man(a1-6)[GlcNAc(b1-2)Man(a1-3)]Man(b1-4)GlcNAc(b1-4)[Fuc(a1-6)]GlcNAc
# Method in brief: as §1
# [29] = molecular target: GlcNAc(b1-2)[GlcNAc(b1-6)]Man(a1-6)[GlcNAc(b1-4)][GlcNAc(b1-2)Man(a1-3)]Man(b1-4)GlcNAc(b1-4)GlcNAc
# Method in brief: as §1
# GlcNAc(b1-3)Fuc = molecular target: GlcNAc(b1-3)Fuc
# Method in brief: as §1
# GlcNAc(b1-3)Gal = molecular target: GlcNAc(b1-3)Gal
# Method in brief: as §1
# [30] = molecular target: GlcNAc(b1-3)Gal(b1-3)GalNAc
# Method in brief: as §1
binder,measurement,setting,value
"AntigenI/IIC123 (Streptococcus mutans), C9E3B4 (protein) MASMTGGQQMGRIHFHYFKLAVQPQVNKEIRNNNDINIDRTLVAKQSVVKFQLKTADLPAGRDETTSFVLVDPLPSGYQFNPEATKAASPGFDVTYDNATNTVTFKATAATLATFNADLTKSVATIYPTVVGQVLNDGATYKNNFTLTVNDAYGIKSNVVRVTTPGKPNDPDNPNNNYIKPTKVNKNENGVVIDGKTVLAGSTNYYELTWDLDQYKNDRSSADTIQKGFYYVDDYPEEALELRQDLVKITDANGNEVTGVSVDNYTNLEAAPQEIRDVLSKAGIRPKGAFQIFRADNPREFYDTYVKTGIDLKIVSPMVVKKQMGQTGGSYENQAYQIDFGNGYASNIIINNVPKINPKKDVTLTLDPADTNNVDGQTIPLNTVFNYRLIGGIIPADHSEELFEYNFYDDYDQTGDHYTGQYKVFAKVDITFKDGSIIKSGAELTQYTTAEVDTAKGAITIKFKEAFLRSVSIDSAFQAESYIQMKRIAVGTFENTYINTVNGVTYSSLEHHHHHH",glycan array binding signal (z-score),[1],1.82
same,glycan array binding signal (z-score),[2],0.62
same,glycan array binding signal (z-score),[3],1.09
same,glycan array binding signal (z-score),GalNAc(b1-4)GlcNAc6S,0.659
same,glycan array binding signal (z-score),GalNAc(b1-6)GalNAc,-0.87
same,glycan array binding signal (z-score),GalNAc3S(b1-4)GlcNAc,-1.45
same,glycan array binding signal (z-score),GalNAc3S(b1-4)GlcNAc3S,-0.623
same,glycan array binding signal (z-score),[4],-0.315
same,glycan array binding signal (z-score),GalNAc4S6S(b1-4)GlcNAc,-0.7
same,glycan array binding signal (z-score),GalNAc6S(b1-4)GlcNAc,-0.005
same,glycan array binding signal (z-score),Glc(a1-4)Glc,-0.709
same,glycan array binding signal (z-score),[5],-0.371
same,glycan array binding signal (z-score),Glc(a1-6)Glc(a1-6)Glc,-0.039
same,glycan array binding signal (z-score),[6],1.8
same,glycan array binding signal (z-score),Glc(b1-4)Glc,1.18
same,glycan array binding signal (z-score),Glc(b1-6)Glc,-1.44
same,glycan array binding signal (z-score),GlcA(b1-3)Gal,-0.936
same,glycan array binding signal (z-score),GlcA(b1-3)GlcNAc,-1.01
same,glycan array binding signal (z-score),GlcA(b1-6)Gal,0.592
same,glycan array binding signal (z-score),[7],-0.897
same,glycan array binding signal (z-score),[8],0.294
same,glycan array binding signal (z-score),[9],-1.29
same,glycan array binding signal (z-score),[10],-0.857
same,glycan array binding signal (z-score),[11],-0.906
same,glycan array binding signal (z-score),[12],-1.06
same,glycan array binding signal (z-score),[13],-1.01
same,glycan array binding signal (z-score),[14],-0.389
same,glycan array binding signal (z-score),[15],0.238
same,glycan array binding signal (z-score),[16],1.62
same,glycan array binding signal (z-score),[17],-1.01
same,glycan array binding signal (z-score),[18],0.93
same,glycan array binding signal (z-score),[19],0.065
same,glycan array binding signal (z-score),[20],2.7
same,glycan array binding signal (z-score),[21],-0.737
same,glycan array binding signal (z-score),[22],-1.21
same,glycan array binding signal (z-score),[23],-0.577
same,glycan array binding signal (z-score),[24],-0.064
same,glycan array binding signal (z-score),[25],-1.08
same,glycan array binding signal (z-score),[26],-0.469
same,glycan array binding signal (z-score),[27],-1.08
same,glycan array binding signal (z-score),[28],1.21
same,glycan array binding signal (z-score),[29],-0.992
same,glycan array binding signal (z-score),GlcNAc(b1-3)Fuc,-0.168
same,glycan array binding signal (z-score),GlcNAc(b1-3)Gal,-0.355
same,glycan array binding signal (z-score),[30],-0.249

# Reformatted: entries from further up
binder	measurement	setting	value
AntigenI/IIC123 (Streptococcus mutans), C9E3B4 (protein) MASMTGGQQMGRIHFHYFKLAVQPQVNKEIRNNNDINIDRTLVAKQSVVKFQLKTADLPAGRDETTSFVLVDPLPSGYQFNPEATKAASPGFDVTYDNATNTVTFKATAATLATFNADLTKSVATIYPTVVGQVLNDGATYKNNFTLTVNDAYGIKSNVVRVTTPGKPNDPDNPNNNYIKPTKVNKNENGVVIDGKTVLAGSTNYYELTWDLDQYKNDRSSADTIQKGFYYVDDYPEEALELRQDLVKITDANGNEVTGVSVDNYTNLEAAPQEIRDVLSKAGIRPKGAFQIFRADNPREFYDTYVKTGIDLKIVSPMVVKKQMGQTGGSYENQAYQIDFGNGYASNIIINNVPKINPKKDVTLTLDPADTNNVDGQTIPLNTVFNYRLIGGIIPADHSEELFEYNFYDDYDQTGDHYTGQYKVFAKVDITFKDGSIIKSGAELTQYTTAEVDTAKGAITIKFKEAFLRSVSIDSAFQAESYIQMKRIAVGTFENTYINTVNGVTYSSLEHHHHHH	glycan array binding signal (z-score)	[2]	0.62
same	glycan array binding signal (z-score)	[3]	1.09
same	glycan array binding signal (z-score)	GalNAc(b1-4)GlcNAc6S	0.659
same	glycan array binding signal (z-score)	GalNAc(b1-6)GalNAc	-0.87
same	glycan array binding signal (z-score)	GalNAc3S(b1-4)GlcNAc	-1.45
same	glycan array binding signal (z-score)	GalNAc3S(b1-4)GlcNAc3S	-0.623
same	glycan array binding signal (z-score)	[4]	-0.315
same	glycan array binding signal (z-score)	GalNAc4S6S(b1-4)GlcNAc	-0.7
same	glycan array binding signal (z-score)	GalNAc6S(b1-4)GlcNAc	-0.005
